According to US6872336B2, “Process for producing a pharmaceutical solid preparation containing a poorly soluble drug” (Shin-Etsu Chemical Co., Ltd., priority 2001, dated 2005):
In brackets after ≈: the same amount, converted by molar mass.

Test: physchem
Settings: pH 6.8

Question: With `COC(=O)C1=C(C)NC(C)=C(C(=O)OC)C1c1ccccc1[N+](=O)[O-]` [nifedipine] as the molecule, how does the solubility read?
Answer: 10 µg/mL (≈ 28.9 µM)
